{"source": "patent US20090324635", "about": "(published 2009)", "assay": "peptide synthesis", "settings": "purification step, HPLC (A %), diacetate", "data": [{"substance": "1-((4R,5S)-5-(2-Aminoethylamino)-N2-(10,12-dimethyl-1-oxotetradecyl)-4-hydroxy-L-ornithine)-2-L-serine-5-((3R)-3-hydroxy-L-ornithine)-pneumocandin B0", "values": [{"measurement": "final HPLC purity", "value": 94.0, "unit": "A %"}]}]}
